Laboratory results: PubChem BioAssay AID504764 (Drosophila RNAi Screening Center, 2011)

Purpose: 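Genome-wide screen for regulators of Notch-driven gene expression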 (primary screen)
Cell system: Drosophila Kc167 cells
Reagents: long dsRNA against Drosophila genes
Time to read-out: about 5 days (4 days dsRNA, then 24 h after transfection)
Treatment: transfection of constitutively active membrane-tethered Notch lacking the extracellular domain, read 24 h later
Read-out: 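Firefly luciferase from an E(spl)m3 reporter with active Notch, plus control-promoter and uninduced reporter wells for normalisation; unnormalised counts, duplicate wells a and b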
Direction: induced reporter light, run 1, well a and induced reporter light, run 1, well b: higher = more light from the Notch target reporter with active Notch; control promoter light, run 1, well a and control promoter light, run 1, well b: higher = more light from the viral control promoter (cell number, transfection, viability); uninduced reporter light, run 1, well a: higher = more light from the Notch target reporter without active Notch
Active means: 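Wells with low control signal or poorly matching duplicates excluded; duplicates averaged; per source plate, z beyond ±2 for induced/control log2 ratio or beyond ±1.8 for induced/uninduced marks a hit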
Meaning of the calls: active = modifier hit (raised or lowered Notch signal); inactive = not a hit
In all, the deposit lists about 22,000 reagents; below is an unselected part of those that have a named target and a result. Of all reagents, 403 (1.9%) were called active. 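Unnormalised raw counts per well; ratio z-scores behind the hit calls and whether each hit raises or lowers signal are not deposited.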 A plus sign joins genes that one reagent is predicted to hit. Reagent sequences are not shown. The record does not give: the amount of reagent.

predicted target	dsRNA	induced reporter light, run 1, well a	induced reporter light, run 1, well b	control promoter light, run 1, well a	control promoter light, run 1, well b	uninduced reporter light, run 1, well a	call
D1 (D1 chromosomal protein)	DRSC16638	1.06e5	1.03e5	86655	89505	8440	inactive
LanB1	DRSC03360	77770	79330	57435	62880	5600	inactive
tej (tejas)	DRSC07219	65990	86685	90080	1.23e5	9865	inactive
Kah (Kahuli)	DRSC07887	1.94e5	2.19e5	2.00e5	2.03e5	16320	inactive
Kah (Kahuli)	DRSC08515	1.21e5	1.15e5	1.43e5	1.42e5	5760	inactive
cos (costa)	DRSC07598	1.87e5	1.69e5	1.73e5	1.80e5	14710	inactive
CG6380	DRSC02950	1.40e5	1.31e5	1.27e5	1.17e5	10870	inactive
vnc + CG42455	DRSC09867	1.14e5	90935	64505	50085	12085	inactive
CG6191	DRSC05938	57055	52435	30985	27080	10735	inactive
CG42374 + Mettl5	DRSC11085	1.08e5	1.17e5	68820	66455	9395	inactive
kraken	DRSC00824	1.15e5	1.06e5	92360	58210	9810	inactive
Hers + amn	DRSC20306	1.03e5	1.12e5	81655	1.36e5	12450	inactive
Debcl (Death executioner Bcl-2)	DRSC04965	85580	74400	54230	73880	5850	inactive
Pi4KIIalpha (Phosphatidylinositol 4-kinase II alpha)	DRSC12322	1.30e5	1.48e5	90375	76950	11780	inactive
Pi4KIIalpha (Phosphatidylinositol 4-kinase II alpha)	DRSC12323	68375	80600	1.10e5	73485	7360	inactive
Cap-H2 (Chromosome associated protein H2)	DRSC14908	1.38e5	1.36e5	1.24e5	1.03e5	10960	inactive
AnxB10 (Annexin B10)	DRSC20677	1.07e5	1.54e5	1.12e5	64795	8838	inactive
CG5078	DRSC11762	1.85e5	1.11e5	1.15e5	1.03e5	9810	inactive
CG15130	DRSC02430	57435	54775	64245	72145	5185	inactive
PIG-C (Phosphatidylinositol glycan anchor biosynthesis class C)	DRSC08241	1.28e5	1.37e5	1.63e5	1.54e5	8610	inactive
cac (cacophony)	DRSC19743	1.54e5	1.45e5	2.27e5	2.10e5	9665	inactive
cac (cacophony)	DRSC20354	1.96e5	1.85e5	2.04e5	1.95e5	15450	inactive
CG5776	DRSC02891	2.43e5	2.44e5	1.95e5	2.23e5	17400	inactive

Entries above whose target name starts with D or d:
predicted target	dsRNA	induced reporter light, run 1, well a	induced reporter light, run 1, well b	control promoter light, run 1, well a	control promoter light, run 1, well b	uninduced reporter light, run 1, well a	call
D1 (D1 chromosomal protein)	DRSC16638	1.06e5	1.03e5	86655	89505	8440	inactive
Debcl (Death executioner Bcl-2)	DRSC04965	85580	74400	54230	73880	5850	inactive

More entries follow:
predicted target	dsRNA	induced reporter light, run 1, well a	induced reporter light, run 1, well b	control promoter light, run 1, well a	control promoter light, run 1, well b	uninduced reporter light, run 1, well a	call
NKCC (sodium potassium chloride cotransporter)	DRSC12140	1.57e5	1.48e5	1.45e5	1.52e5	12095	inactive
NKCC (sodium potassium chloride cotransporter)	DRSC12311	62610	78370	47690	46815	4925	inactive
Rdh (Red herring)	DRSC08063	4830	4635	5775	5090	3685	inactive
Rdh (Red herring)	DRSC08434	10930	13475	10265	11060	3032	inactive
Dlip1 (Dorsal interacting protein 1)	DRSC18460	63915	61975	78365	80400	4655	inactive
CG13048	DRSC09929	1.50e5	1.72e5	1.92e5	1.97e5	12340	inactive
CG15472	DRSC18055	1.59e5	1.59e5	2.85e5	3.18e5	11245	inactive
CG3225	DRSC00578	1.82e5	1.83e5	1.71e5	2.00e5	17145	inactive
GluRIIB (Glutamate receptor IIB)	DRSC03335	1.54e5	1.31e5	1.56e5	1.55e5	8345	inactive
eRF3 (eukaryotic translation release factor 3)	DRSC03322	60890	80355	83660	85455	7590	inactive
Slc45-1	DRSC10427	1.77e5	1.34e5	1.61e5	1.49e5	7920	inactive
t-Grip84 (testis-specific gamma-tubulin ring protein 84)	DRSC10904	2.19e5	1.63e5	2.56e5	1.71e5	11965	inactive
Chchd2 (Coiled-coil-helix-coiled-coil-helix domain containing 2)	DRSC19931	63050	65460	70570	57360	8715	inactive
S6KL (S6 Kinase Like)	DRSC19349	1.25e5	1.29e5	93570	69260	8345	inactive
CG13097	DRSC02199	2.42e5	2.23e5	2.20e5	2.28e5	16060	inactive
CG12817	DRSC14555	92445	81570	76725	51255	8045	inactive
ea (easter)	DRSC16939	2.12e5	1.93e5	1.61e5	2.05e5	15295	inactive
CG2616	DRSC15440	1.14e5	82555	71605	64640	6175	inactive
asRNA:CR33945 (antisense RNA:CR33945)	DRSC14080	88660	86765	86155	1.11e5	6360	inactive
LpR2 (Lipophorin receptor 2)	DRSC13726	1.74e5	2.13e5	1.76e5	1.95e5	13770	inactive
LpR2 (Lipophorin receptor 2)	DRSC13728	2.09e5	1.92e5	1.93e5	2.18e5	15635	inactive
LpR2 (Lipophorin receptor 2)	DRSC15655	1.58e5	2.04e5	2.22e5	2.09e5	13195	inactive
LpR2 (Lipophorin receptor 2)	DRSC15658	1.13e5	1.07e5	65895	78720	13280	inactive
CG8089	DRSC07074	1.05e5	1.09e5	1.29e5	1.18e5	9455	inactive
CG31525	DRSC12004	2.41e5	2.70e5	3.31e5	2.78e5	21350	inactive
CG17107	DRSC02575	2.19e5	2.47e5	1.47e5	1.52e5	27565	inactive
Ubc4 (Ubiquitin conjugating enzyme 4)	DRSC11312	1.35e5	1.39e5	97305	53945	12492	inactive
